Taken from: PubChem BioAssay AID1159578 (Peter MacCallum Cancer Centre, 2015)
Here is an unselected part of about 18,000 reagents tested. Over the whole deposit, about 1,030 (5.7%) are marked active. 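Inactive calls also include pools with fewer than 3300 nuclei, whose migration was not assessed.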 The raw values are shown without normalisation. Not all columns of the deposit are shown.

Aim: 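siRNA pools altering how lymphatic endothelial cells close a scratch wound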 (primary screen)
Cell system: human lymphatic endothelial cells
Reagent: siRNA pool against human genes, 40 nM
Duration: 48 h after transfection
Measurement: 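Cells stained with dye and imaged after a scratch; covered wound area and nuclei counted, duplicates averaged, migration set against mock wells and turned into a robust z-score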
Direction: migration robust z-score: higher = faster migration into the scratch; nuclei per well: higher = more cells in the well
Call rule: 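Pools averaging fewer than 3300 nuclei are never called; remaining pools count as changed when migration robust z lies outside -2 to 2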
Meaning of the calls: active = migration changed; inactive = no migration change, or too few cells

For CCDC88C, how do the results read?
migration robust z-score: 1.54; nuclei per well, duplicate mean: 6865; call: inactive

What is on record for PCNX1?
migration robust z-score: -2.03; nuclei per well, duplicate mean: 4412; call: active

What did the screen give for PRPF6?
migration robust z-score: -1.64; nuclei per well, duplicate mean: 6270; call: inactive

What did the screen give for PLAAT4?
migration robust z-score: -0.83; nuclei per well, duplicate mean: 4986; call: inactive

For CRYAB, what was measured?
migration robust z-score: -0.78; nuclei per well, duplicate mean: 5616; call: inactive

What is on record for NDUFS1?
migration robust z-score: -0.65; nuclei per well, duplicate mean: 5740; call: inactive

What is on record for NIPSNAP3B?
migration robust z-score: 1.21; nuclei per well, duplicate mean: 6740; call: inactive

With RRS1, what was measured?
migration robust z-score: -0.18; nuclei per well, duplicate mean: 5378; call: inactive

What did the screen give for LILRA2?
migration robust z-score: -0.04; nuclei per well, duplicate mean: 6228; call: inactive

Entries above whose target name begins with N or n:
NDUFS1 → migration robust z-score = -0.65; nuclei per well, duplicate mean = 5740; call = inactive
NIPSNAP3B → migration robust z-score = 1.21; nuclei per well, duplicate mean = 6740; call = inactive

The listing continues.
For ALDOB, how do the results read?
migration robust z-score: 0.96; nuclei per well, duplicate mean: 4432; call: inactive

For SSX5, what does the deposit list?
migration robust z-score: 0.44; nuclei per well, duplicate mean: 4562; call: inactive

Which result is listed for KLF2?
migration robust z-score: 0.29; nuclei per well, duplicate mean: 5692; call: inactive

For WDR91, what was measured?
migration robust z-score: -0.08; nuclei per well, duplicate mean: 6191; call: inactive

Which result is listed for CPTP?
migration robust z-score: -0.98; nuclei per well, duplicate mean: 5494; call: inactive

What is on record for ZDHHC17?
migration robust z-score: 1.44; nuclei per well, duplicate mean: 6466; call: inactive

How did the screen score NTN4?
migration robust z-score: 1.22; nuclei per well, duplicate mean: 6540; call: inactive

With MAG, how do the results read?
migration robust z-score: -1.25; nuclei per well, duplicate mean: 5786; call: inactive

What is on record for TMPRSS15?
migration robust z-score: 0.54; nuclei per well, duplicate mean: 5910; call: inactive

With PTGFRN, how do the results read?
migration robust z-score: 0.36; nuclei per well, duplicate mean: 5795; call: inactive

With PTGFR, how do the results read?
migration robust z-score: 0.9; nuclei per well, duplicate mean: 6215; call: inactive

For RYR1, what was measured?
migration robust z-score: -1.66; nuclei per well, duplicate mean: 5564; call: inactive
